Data as given in PubChem BioAssay AID1259314 (Drosophila RNAi Screening Center, 2017)

Screen: 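Genes whose knock-down alters cell survival under toxic manganese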 (primary screen)
System: Drosophila S2R+ cells
Knock-down reagent: long dsRNA against Drosophila genes
Timing: 5 days (4 days knock-down, then 1 day metal exposure)
Treatment: manganese chloride added to 15 mM for 24 hours
Detection: 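Luciferase ATP signal used as a proxy for viable cell number, reported as one averaged z-score per dsRNA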
Reading the numbers: mean ATP z-score: higher = more ATP than the plate average, more viable cells under manganese
Hit rule: 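a mean ATP z-score past 1.5 in either direction is called active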
Meaning of the calls: active = strong ATP change, up or down; inactive = no strong ATP change
In all, the deposit lists about 3,100 reagents; below is an unselected part. Of all reagents, 289 (9.3%) got an active call. 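Active includes both higher and lower ATP than plate average; check the z-score sign for direction.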 Names joined by + are all predicted targets of the reagent. No sequences are given here. Not stated in the record: the amount of reagent.

gene | dsRNA | mean ATP z-score | Outcome
CG7458 | DRSC11829 | 0.112 | inactive
CG7458 | DRSC21340 | -0.0995 | inactive
CG15706 | DRSC06577 | 0.00517 | inactive
CG15706 | DRSC39576 | 0.833 | inactive
CG3625 | DRSC00008 | 1.08 | inactive
CG3625 | DRSC00621 | -0.584 | inactive
Gr2a | DRSC18603 | -0.361 | inactive
Gr2a | DRSC39727 | -0.206 | inactive
ATPsynbetaL | DRSC10503 | -0.842 | inactive
ATPsynbetaL | DRSC24354 | -0.22 | inactive
TrpA1 | DRSC10544 | -1.01 | inactive
ppk10 | DRSC01123 | 0.413 | inactive
Ir21a + asRNA:CR43609 | DRSC00528 | 0.191 | inactive
mthl2 | DRSC10287 | -0.994 | inactive
mthl2 | DRSC27003 | 0.141 | inactive
AstA-R2 | DRSC24820 | 0.0368 | inactive
mbo | DRSC16123 | 0.211 | inactive
mbo | DRSC39478 | -0.999 | inactive
CG5002 | DRSC06911 | 2.08 | active
CG16736 | DRSC15145 | 0.0205 | inactive
Dg | DRSC06718 | -0.306 | inactive
Or47b | DRSC07492 | -0.557 | inactive
Or47b | DRSC39664 | -0.504 | inactive
CG11857 | DRSC14411 | -0.25 | inactive
CG30339 | DRSC05168 | -0.388 | inactive
CG17930 | DRSC15292 | -1.37 | inactive
CG17930 | DRSC28230 | -0.39 | inactive
NLaz | DRSC21521 | -0.505 | inactive
Gr93c | DRSC14587 | 0.271 | inactive
NaCP60E | DRSC04307 | -0.366 | inactive
NaCP60E | DRSC26120 | 0.454 | inactive
Or49a | DRSC07493 | -0.457 | inactive
Or49a | DRSC39708 | -1.24 | inactive
Alg14 | DRSC19983 | -0.64 | inactive
CG7840 | DRSC03075 | -1.22 | inactive
CG7840 | DRSC39867 | -0.0502 | inactive
Apl | DRSC10350 | -0.158 | inactive
Tsp47F | DRSC07325 | -1.17 | inactive
Or82a | DRSC11996 | -0.0638 | inactive
Or82a | DRSC39482 | 0.0136 | inactive
CG32320 | DRSC21514 | -0.407 | inactive
CG32320 | DRSC28106 | 0.111 | inactive
Inx2 | DRSC18783 | 0.0743 | inactive
Inx2 | DRSC24455 | 0.757 | inactive
Ac13E | DRSC19325 | -0.887 | inactive
Ac13E | DRSC27333 | 1.23 | inactive
jef | DRSC06198 | 1.3 | inactive
jef | DRSC24815 | 0.332 | inactive
Fie | DRSC08158 | 2.99 | active
Fie | DRSC39856 | -0.857 | inactive
Culd | DRSC10262 | 3.16 | active
Culd | DRSC39624 | -0.471 | inactive
mrva | DRSC21842 | 0.141 | inactive
mrva | DRSC25508 | -1.55 | active
CG8908 | DRSC07297 | 0.485 | inactive
CG8908 | DRSC39602 | -0.808 | inactive
alien + CG17906 | DRSC02641 | 0.64 | inactive
alien + CG17906 | DRSC24008 | 0.187 | inactive
ptc | DRSC05117 | -0.455 | inactive
ptc | DRSC07669 | -0.743 | inactive
Tspo + rempA | DRSC00533 | 0.553 | inactive
bbc | DRSC22309 | -2.13 | active
CCAP-R | DRSC14891 | -0.41 | inactive
CCAP-R | DRSC15967 | 0.239 | inactive
CCAP-R | DRSC29494 | -0.17 | inactive
ppk8 | DRSC17269 | -1.89 | active
ppk8 | DRSC39772 | -1.28 | inactive
emei | DRSC10897 | 0.651 | inactive
emei | DRSC22684 | 0.257 | inactive
Pss | DRSC11757 | -1.13 | inactive
Pss | DRSC39436 | -0.475 | inactive
Nox | DRSC06596 | 0.00974 | inactive
Nox | DRSC06857 | 0.564 | inactive
Nox | DRSC27816 | -0.191 | inactive
Icmt | DRSC09834 | -0.678 | inactive
Icmt | DRSC39884 | 1.61 | active
